The data set concerns hemodialysis subjects. The data set is described as follows: Main Study: vadadustat versus epoetin alfa in hemodialysis subjects (Hb, ESA/RBC rescue, EPO levels). The format is in vivo, human. The source says:
The primary efficacy endpoint was to assess the mean change in Hb between baseline and the PEP (Weeks 10 to 12) in hemodialysis subjects.
The first key secondary efficacy endpoint was the proportion of subjects with Hb values within the target range (10.0 to 11.0 g/dL, inclusive) at the PEP (Weeks 10 to 12).
The second key secondary endpoint was the mean change in Hb from PEP (average Hb from Weeks 10 to 12) to the SEP (average Hb from Weeks 18 to 20) for subjects who transitioned to TIW vadadustat dosing. In the Main Study, the change in Hb from PEP to SEP for the 17 subjects who switched from QD to TIW was −0.4 g/dL.

For `O=C(O)CNC(=O)c1ncc(-c2cccc(Cl)c2)cc1O` [vadadustat, {[5-(3-chlorophenyl)-3-hydroxypyridine-2-carbonyl]amino}acetic acid], the EPO levels result (high epoetin stratum) is “no particular change”. For the same molecule, under “low epoetin stratum”, the “EPO levels in Week 1 and Week 1+1 day” value is “Dose-dependent increase”; the “increase in EPO levels relative to physiological range” value is “within what was considered to be physiological range”.

Values taken from patent publication US12697330B2, “Therapeutic methods using vadadustat” (Akebia Therapeutics, Inc., priority 2021, dated 2026).
